“Also recorded” adds a separate entry of the source. Part of at least one peptide drawing is inferred or uncertain, most often the ends. Some compounds share one wording; it may come from a single statement. Positions of bridges follow the written chain, without caps; N, C: chain ends. Non-standard residues stand in square brackets, D forms with d. Residues, ends and D or L forms follow the SMILES beside them. pS = N[C@@H](COP(=O)(O)O)C(=O)O
Assays:
[1] = test system: ligated rat duodenal loops; assay: Fluid secretion in rat intestinal loops; format: in vivo, rats; conditions: for Rate of HCO3^− accumulation / Rate of fluid accumulation / pH: 2.5 μg of peptide per loop, duodenal loops
Protocol: The effect of GC-C agonist peptides on secretion were studied by injecting GC-C agonist peptides described herein directly into an isolated loop in wild-type rats.
Loops were isolated by surgically ligating three loops in the small intestine of the rat. The methodology for ligated loop formation was similar to that described in (London et al., 1997, Am J Physiol, p. G93-105). The loops were roughly centered and at lengths of 1-3 cm. The loops were injected with 200 μl of either peptide/GC-C agonist (0.1-5 μg) or vehicle (20 mM Tris, pH 7.5 or Krebs Ringer, 10 mM Glucose, HEPES buffer (KRGH)). Following a recovery time of up to 90 minutes the loops were excised. Weights were recorded for each loop before and after removal of the fluid contained therein. The length of each loop was also recorded. A weight to length ratio (W/L) for each loop was calculated to determine the effects of the GC-C agonist peptide described herein on secretion. Loop fluid volume was also determined.
Data showing increases in fluid secretion, pH increase and bicarbonate secretion in ligated duodenal loops in rats are shown in FIG. 2 and Table 8. […] Table 8 provides the results in ligated rat duodenal loops using 2.5 μg of peptide per loop.

Amino acid sequences for entries named in this document (tags omitted). Residues count along the entry.
UniProt P25092, 24-1073: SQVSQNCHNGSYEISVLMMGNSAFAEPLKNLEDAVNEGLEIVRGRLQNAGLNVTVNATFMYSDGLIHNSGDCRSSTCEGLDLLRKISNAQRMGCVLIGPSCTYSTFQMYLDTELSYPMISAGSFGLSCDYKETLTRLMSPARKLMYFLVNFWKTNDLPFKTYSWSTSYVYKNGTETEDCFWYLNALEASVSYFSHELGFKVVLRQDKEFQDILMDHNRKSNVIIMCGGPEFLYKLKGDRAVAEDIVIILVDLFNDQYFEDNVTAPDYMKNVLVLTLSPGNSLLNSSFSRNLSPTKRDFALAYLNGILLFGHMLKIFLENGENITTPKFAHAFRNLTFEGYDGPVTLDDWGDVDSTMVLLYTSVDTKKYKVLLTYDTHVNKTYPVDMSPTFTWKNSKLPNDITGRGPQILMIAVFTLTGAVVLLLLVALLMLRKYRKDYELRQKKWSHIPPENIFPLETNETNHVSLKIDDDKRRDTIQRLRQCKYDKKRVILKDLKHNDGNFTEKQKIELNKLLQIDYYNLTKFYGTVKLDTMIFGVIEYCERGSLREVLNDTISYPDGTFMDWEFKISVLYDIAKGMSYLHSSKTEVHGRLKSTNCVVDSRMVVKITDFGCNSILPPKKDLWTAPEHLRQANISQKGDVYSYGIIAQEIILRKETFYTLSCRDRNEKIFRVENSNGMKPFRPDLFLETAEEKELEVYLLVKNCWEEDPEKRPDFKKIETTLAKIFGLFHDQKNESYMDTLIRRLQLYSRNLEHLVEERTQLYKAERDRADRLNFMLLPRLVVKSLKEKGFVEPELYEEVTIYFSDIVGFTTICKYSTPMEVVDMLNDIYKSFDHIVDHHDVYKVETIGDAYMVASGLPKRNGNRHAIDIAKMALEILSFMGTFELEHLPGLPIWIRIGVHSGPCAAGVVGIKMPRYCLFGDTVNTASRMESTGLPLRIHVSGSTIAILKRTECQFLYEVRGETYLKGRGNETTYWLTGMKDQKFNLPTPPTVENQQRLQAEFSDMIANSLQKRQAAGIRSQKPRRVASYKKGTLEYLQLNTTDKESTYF

GC-C [2] = target: T1, GC-C (Homo sapiens, UniProt P25092); format: binding; conditions: pH 5, [125I]-STp 200 pM, intact T84 cells, 37° C. 1 h
T1 construct: cGMP Accumulation in T84 Cells for Analysis of GC-C Activity; endogenous in cells; host or cells: T84 cells

GC-C [3] = target: T1, GC-C; assay: cGMP accumulation in T84 cells for analysis of GC-C activity; format: cell-based; conditions: read-out: EC50 at pH 5 (nM), cGMP response of T84 cells; pH 5, 30 minutes at 37° C., 1 mM IBMX
female CD-1 mice = assay: Gastrointestinal transit in mice (charcoal meal); format: in vivo; conditions: oral gavage, % distance travelled by charcoal front
Protocol: The purpose of the assay was to test the effect of the guanylate cyclase C agonist peptides on in vivo gastrointestinal transit in mice.
For the assay, female CD-1 mice (n=10 per group) weighing 25-30 g were fasted overnight and given access to water ad libitum. Activated charcoal (20 g; 100 mesh; Sigma cat# 242276) was suspended in 200 mL gum arabic (100 mg/mL), and stirred for at least one hour. Test peptides were prepared in a 20 mM Tris pH 6.9 vehicle.
Test peptide and vehicle were administered in 200 μL doses by oral gavage. Seven minutes after dosing the test peptides, 200 μL of the charcoal/gum arabic suspension was dosed by oral gavage. After 15 minutes, mice were sacrificed by CO2 overdose. The gastrointestinal tract was removed from the esophagus to the caecum. The total length of the small intestine was measured from the pyloric junction to the ileocaecal junction. The distance travelled by the charcoal was measured from the pyloric junction to the charcoal front. The Distance Travelled (%) was determined as (distance travelled by charcoal/total length of the small intestine)×100. Data were entered into the GraphPad Prism software program and analyzed by ANOVA using a Bonferroni multiple comparison test post-hoc. Plots of data and ED50 were also determined using the GraphPad Prism software package.
The dose-dependent effects of acute doses of Peptide 4, Peptide 1, Peptide 2, the dephosphorylated form of Peptide 1 and the dephosphorylated form of Peptide 2 on GI transit were determined in female CD mice. The distance traveled by the charcoal front after seven minutes, expressed as a percent of total length of small intestine was used to calculate ED50 values (Table 7).

[4] = In vitro metabolism in mouse jejunum loop fluid; format: in vitro ADME; conditions: control reaction (1 M Tris-HCl pH 8) at 37° C., 120 minutes
Protocol: The purpose of this study was to determine the stability of phosphorylated peptides in mouse jejunal loop fluid. […] The isotopically labeled peptide 2 was synthesized with ^13C, ^15N-labeled alanine and leucine (i.e., with a sequence CCpS[^13C6, ^15N]LCCNP[^13C6, ^15N]ACTGC).
Each peptide was synthesized by American Peptide Company, Inc., and was stored desiccated at −20° C. A 1 mg/mL solution for each of the non-labeled peptides was prepared in 1 M tris (hydroxymethyl) aminomethane hydrochloride (Tris-HCl), pH 8 just prior to conducting the mouse intestinal loop fluid assay. A 500 ng/mL solution of ^13C, ^15N-labeled peptide 2 was prepared in 0.1% formic acid in water and was utilized to dilute the jejunum samples for post-assay LC-MS/MS analysis.
To collect the fluid, mice were fasted overnight with full access to water. They were then anesthetized with isofluorane for surgery and subjected to laparotomy in which the small intestine was exteriorized. Jejunum loops of 3 to 4 cm in length were made with sutures starting at 7 cm from the pyloric sphincter of the stomach. Once the loops were formed, they were injected with 200 μL of phosphate buffered saline (PBS) buffer (10 mM, pH 7.4). The abdominal wall and skin of the animals were then sutured, and the animals were allowed to recover for 30 minutes. Following recovery, the animals were sacrificed, the loops were then excised and the fluid inside was recovered and stored at −80° C. until use.
For each peptide, 25 μL of the 1 mg/mL peptide stock solution was added to 25 μL of 1 M Tris-HCl and 25 μL of 10× calf intestinal phosphatase (CIP) buffer containing 500 mM Tris-HCl, 1 M sodium chloride (NaCl), 0.1 mM magnesium chloride (MgCl2), pH 8. The reactions were initiated by adding 175 μL of the mouse jejunum loop fluid or 175 μL of the 1 M Tris-HCl pH8 buffer for the control reactions. The final concentration of each peptide was 100 μg/mL. […]
All samples were analyzed using an Applied Biosystems/MDS SCIEX API 4000 triple quadrupole mass spectrometer equipped with a high-performance liquid chromatography (HPLC) system. […]

[5] = test system: STZ-induced diabetic rats; assay: Liquid gastric emptying in STZ-induced diabetic rats; format: in vivo, rats (Sprague-Dawley); conditions: 15 min

Question: Which “Rate of HCO3^− accumulation” value [1] does the source give for `CC(C)C[C@@H]1NC(=O)[C@H](CO)NC(=O)[C@@H]2CSSC[C@@H]3NC(=O)[C@H](C)NC(=O)[C@@H]4CCCN4C(=O)[C@H](CC(N)=O)NC(=O)[C@H](CSSC[C@H](N)C(=O)N2)NC(=O)[C@H](CSSC[C@@H](C(=O)N[C@@H](Cc2ccc(O)cc2)C(=O)O)NC(=O)CNC(=O)[C@H]([C@@H](C)O)NC3=O)NC1=O` [Dephospho-Peptide 1, CCSLCCNPACTGCY] (H-CCSLCCNPACTGCY-OH; disulfide 1-6, 2-10, 5-13 (inferred); N-terminus and C-terminus assumed) here?
Answer: 0.00008 Meq/min/cm

Question: And the “Rate of fluid accumulation” value [1]?
Answer: 2.0 µL/min/cm

Question: What about the pH [1] of the same compound?
Answer: 7.7

Question: What about the Ki (GC-C [2]) of the same compound?
Answer: 10.5 nM

Question: And the EC50 (GC-C [3])?
Answer: 128 nM

Question: What about the “ED50 (μg/kg), acceleration of upper GI transit” value (female CD-1 mice) of the same compound?
Answer: 12.7 µg/kg

Question: Which results are given for `CC(C)C[C@@H]1NC(=O)[C@H](CO)NC(=O)[C@@H]2CSSC[C@@H]3NC(=O)[C@H](C)NC(=O)[C@@H]4CCCN4C(=O)[C@H](CC(N)=O)NC(=O)[C@H](CSSC[C@H](N)C(=O)N2)NC(=O)[C@H](CSSC[C@@H](C(=O)O)NC(=O)CNC(=O)[C@H]([C@@H](C)O)NC3=O)NC1=O` [Dephospho-Peptide 2, CCSLCCNPACTGC] (H-CCSLCCNPACTGC-OH; disulfide 1-6, 2-10, 5-13 (inferred); N-terminus and C-terminus assumed)?
Answer: Rate of fluid accumulation [1]: 2.3 µL/min/cm; metabolism in the control reaction [4]: not metabolized; Ki (GC-C [2]): 4.5 nM; EC50 (GC-C [3]): 78.1 nM; ED50 (μg/kg), acceleration of upper GI transit (female CD-1 mice): 6.03 µg/kg

Question: Which results are given for `CC(C)C[C@@H]1NC(=O)[C@H](COP(=O)(O)O)NC(=O)[C@@H]2CSSC[C@@H]3NC(=O)[C@H](C)NC(=O)[C@@H]4CCCN4C(=O)[C@H](CC(N)=O)NC(=O)[C@H](CSSC[C@H](N)C(=O)N2)NC(=O)[C@H](CSSC[C@@H](C(=O)N[C@@H](Cc2ccc(O)cc2)C(=O)O)NC(=O)CNC(=O)[C@H]([C@@H](C)O)NC3=O)NC1=O` [Peptide 1, CCpSLCCNPACTGCY] (H-CC[pS]LCCNPACTGCY-OH; disulfide 1-6, 2-10, 5-13 (inferred); N-terminus and C-terminus assumed)?
Answer: Rate of HCO3^− accumulation [1]: 0.00007 Meq/min/cm; Rate of fluid accumulation [1]: 1.8 µL/min/cm; pH [1]: 7.7; Ki (GC-C [2]): 1.1 nM; EC50 (GC-C [3]): 9.8 nM; ED50 (μg/kg), acceleration of upper GI transit (female CD-1 mice): 5.61 µg/kg

Question: For `CC(C)C[C@@H]1NC(=O)[C@H](COP(=O)(O)O)NC(=O)[C@@H]2CSSC[C@@H]3NC(=O)[C@H](C)NC(=O)[C@@H]4CCCN4C(=O)[C@H](CC(N)=O)NC(=O)[C@H](CSSC[C@H](N)C(=O)N2)NC(=O)[C@H](CSSC[C@@H](C(=O)O)NC(=O)CNC(=O)[C@H]([C@@H](C)O)NC3=O)NC1=O` [Peptide 2, CCpSLCCNPACTGC] (H-CC[pS]LCCNPACTGC-OH; disulfide 1-6, 2-10, 5-13 (inferred); N-terminus and C-terminus assumed), which “Rate of HCO3^− accumulation” value [1] is on record?
Answer: 0.00008 Meq/min/cm

Question: What about the “Rate of fluid accumulation” value [1] of the same compound?
Answer: 2.3 µL/min/cm

Question: What about the pH [1] of the same compound?
Answer: 8.1

Question: What about the “Induction of fluid accumulation / duodenal fluid secretion (FIG. 2)” value ([1]; ligated rat duodenal loops) of the same compound?
Answer: potency similar to that of Peptide 4; also recorded: promote duodenal fluid secretion

Question: And the “metabolism in the control reaction” value [4]?
Answer: not metabolized

Question: And the Ki (GC-C [2])?
Answer: 0.6 nM

Question: And the “effect on liquid gastric emptying (LGE)” value ([5]; 0.1 mg/kg oral gavage)?
Answer: did not statistically significantly restore LGE to those of normal controls

Question: And the “effect on liquid gastric emptying (LGE)” value ([5]; 0.3 mg/kg oral gavage)?
Answer: significantly enhanced LGE

Question: What about the “effect on liquid gastric emptying (LGE)” value ([5]; 0.3 mg/kg oral gavage, listed as peptide 2) of the same compound?
Answer: restored LGE in STZ-induced diabetic animals to those of normal controls

Question: What about the “effect on liquid gastric emptying (LGE)” value ([5]; 1.0 mg/kg oral gavage) of the same compound?
Answer: significantly enhanced LGE

Question: What about the “effect on liquid gastric emptying (LGE)” value ([5]; 1.0 mg/kg oral gavage, listed as peptide 2) of the same compound?
Answer: restored LGE in STZ-induced diabetic animals to those of normal controls

Question: What about the EC50 (GC-C [3]) of the same compound?
Answer: 10.4 nM

Question: And the “ED50 (μg/kg), acceleration of upper GI transit” value (female CD-1 mice)?
Answer: 2.47 µg/kg

Question: With `CC(C)C[C@@H]1NC(=O)[C@H](CCC(=O)O)NC(=O)[C@@H]2CSSC[C@@H]3NC(=O)[C@H](C)NC(=O)[C@@H]4CCCN4C(=O)[C@H](CC(N)=O)NC(=O)[C@H](CSSC[C@H](N)C(=O)N2)NC(=O)[C@H](CSSC[C@@H](C(=O)N[C@@H](Cc2ccc(O)cc2)C(=O)O)NC(=O)CNC(=O)[C@H]([C@@H](C)O)NC3=O)NC1=O` [Peptide 3, CCELCCNPACTGCY] (H-CCELCCNPACTGCY-OH; disulfide 1-6, 2-10, 5-13 (inferred); N-terminus and C-terminus assumed) as the compound, how does the “metabolism in the control reaction” value [4] read?
Answer: not metabolized

Question: And the Ki (GC-C [2])?
Answer: 1.2 nM

Question: What about the “effect on liquid gastric emptying (LGE)” value ([5]; 0.1 mg/kg oral gavage) of the same compound?
Answer: effective at the dose studied (0.1 mg/kg) in restoring LGE to those of non-diabetic control levels

Question: What about the EC50 (GC-C [3]) of the same compound?
Answer: 16 nM
